# Measurements: PubChem BioAssay AID248 (DTP/NCI, 2004)
# The list shows only some results of the screen, not a fair sample: it gathers tests that were run many times, whatever their T/C, doses with no T/C, and many T/C values between a quarter and a half above the control. Other doses and runs of a compound stand elsewhere. T/C: endpoint of the treated group in % of that of the vehicle group. Some entries give survivors of the animals treated and no T/C: the source holds a T/C of zero for them, seemingly a mark for toxic or unscored doses. Some doses without a T/C left all or most animals alive at the check, yet need not have been tolerated: the source hardly ever lists a survival T/C far under the control, and the zero likely stands for such cases as well. Survivors were counted at the toxicity check, usually on the fifth day, unless a day is given; later deaths do not show. Schedules are NCI's codes, taken here to give the interval after Q, in days (D) or hours (H), and the number of doses after X. Some entries hold several experiments; the results are listed from low to high. Some schedules carry Z or #; the key to these is not given. Some structures stand for samples that the source files as different forms (salt, stereo form or complex); doses refer to the form tested. Where survival is the endpoint, this PubChem deposit counts one and a half times the control or more as active, and values a quarter to a half above the control carry no call in these data; other NCI protocols may use other cut-offs. Some T/C values carry the count of animals alive at the toxicity check (mostly the fifth day); without a count, all were alive then.
# Tested on: L1210 leukemia ip in BDF1 mice, survival T/C
# Assay: NCI In Vivo Anticancer Drug Screen. Data for tumor model L1210 Leukemia (intraperitoneal) in B6D2F1 (BDF1) mice
# Conditions: T/C endpoint: mean survival time, higher T/C = longer survival
# [1] = dose: 100.0 mg/kg/injection, schedule: Q01DX009 (ip), vehicle: saline with Tween-80
# [2] = dose: 200.0 mg/kg/injection, schedule: Q01DX009 (ip), vehicle: saline with Tween-80
# [3] = dose: 400.0 mg/kg/injection, schedule: Q04DX003 (ip), vehicle: saline with Tween-80
# [4] = dose: 100.0 mg/kg/injection, schedule: Q01DX009 (ip), vehicle: Klucel (hydroxypropylcellulose) (HPC)
# [5] = dose: 200.0 mg/kg/injection, schedule: Q01DX009 (ip), vehicle: Klucel (hydroxypropylcellulose) (HPC)
# [6] = dose: 400.0 mg/kg/injection, schedule: Q01DX009 (ip), vehicle: Klucel (hydroxypropylcellulose) (HPC)
# [7] = dose: 400.0 mg/kg/injection, schedule: Q04DX003 (ip), vehicle: Klucel (hydroxypropylcellulose) (HPC)
# [8] = dose: 400.0 mg/kg/injection, schedule: Q04DX003 (ip), vehicle: saline
# [9] = dose: 400.0 mg/kg/injection, schedule: Q01DX001 (ip), vehicle: carboxymethylcellulose (CMC)
# [10] = dose: 150.0 mg/kg/injection, schedule: Q01DX001 (ip), vehicle: saline
# [11] = dose: 300.0 mg/kg/injection, schedule: Q01DX001 (ip), vehicle: saline
smiles,measurement,setting,value
C=C(Br)CN(C)C,survivor count,[1],0 of 6
same,survivor count,[2],0 of 6
same,survivor count,[3],0 of 6
NNS(=O)(=O)c1ccc([N+](=O)[O-])cc1,survivor count,[4],0 of 6
same,survivor count,[5],0 of 6
same,survivor count,[6],0 of 6
COc1ccc(/C=N/NC(N)=S)c(OC)n1,T/C,"dose: 10.0 mg/kg/injection, schedule: Q04DX003 (ip), vehicle: Klucel (hydroxypropylcellulose) (HPC)",126 % of control [4 of 6 alive]
same,survivor count,"dose: 200.0 mg/kg/injection, schedule: Q04DX003 (ip), vehicle: Klucel (hydroxypropylcellulose) (HPC)",3 of 6
same,survivor count,[7],0 of 6
CCCCOC(=O)CNC(=O)c1ccc([N+](=O)[O-])s1,survivor count,"dose: 200.0 mg/kg/injection, schedule: Q01DX005 (ip), vehicle: saline",2 of 4
O=C(NC(CSC(=O)c1ccccc1)C(=O)O)OCc1ccccc1 (stereo unspecified),survivor count,[6],3 of 6
O=C(N/N=C/c1ccc(Cl)cc1Cl)c1ccccc1,survivor count,[7],6 of 6
CC(C)=CCC(N)CC=C(C)C,survivor count,[4],0 of 6
same,survivor count,"dose: 100.0 mg/kg/injection, schedule: Q04DX002 (ip), vehicle: Klucel (hydroxypropylcellulose) (HPC)",1 of 3
same,survivor count,[5],0 of 6
same,survivor count,[6],0 of 6
CC(=O)OC1COC(NC(=O)N(CCCl)N=O)C(OC(C)=O)C1OC(C)=O (stereo unspecified),T/C,"dose: 6.0 mg/kg/injection, schedule: Q01DX001 (ip), vehicle: saline with Tween-80",146 % of control
same,survivor count,"dose: 45.0 mg/kg/injection, schedule: Q01DX001 (ip), vehicle: saline with Tween-80",10 of 10
same,survivor count,"dose: 67.0 mg/kg/injection, schedule: Q01DX001 (ip), vehicle: saline with Tween-80",9 of 10
same,survivor count,"dose: 100.0 mg/kg/injection, schedule: Q01DX001 (ip), vehicle: saline with Tween-80",9 of 10
O=C(O)CC(Br)C(=O)O (stereo unspecified),survivor count,[8],2 of 6
CC1CCCC(C)N1NC1=NCCO1 (stereo unspecified),survivor count,"dose: 200.0 mg/kg/injection, schedule: Q04DX003 (ip), vehicle: saline with Tween-80",0 of 6
same,survivor count,[3],0 of 6
O=C(C[P+](c1ccccc1)(c1ccccc1)c1ccccc1)c1ccccc1,survivor count,"dose: 200.0 mg/kg/injection, schedule: Q01DX001 (ip), vehicle: Klucel (hydroxypropylcellulose) (HPC)",1 of 6
same,survivor count,"dose: 400.0 mg/kg/injection, schedule: Q01DX001 (ip), vehicle: Klucel (hydroxypropylcellulose) (HPC)",0 of 6
C[N+]12CCC3=C(CC(=O)OC3)c3cccc(c31)CC2 (stereo unspecified),survivor count,"dose: 50.0 mg/kg/injection, schedule: Q01DX001 (ip), vehicle: carboxymethylcellulose (CMC)",3 of 6
same,survivor count,"dose: 100.0 mg/kg/injection, schedule: Q01DX001 (ip), vehicle: carboxymethylcellulose (CMC)",0 of 6
same,survivor count,"dose: 200.0 mg/kg/injection, schedule: Q01DX001 (ip), vehicle: carboxymethylcellulose (CMC)",0 of 6
same,survivor count,[9],0 of 6
OC(Nc1ccccn1)(C(F)(F)F)C(F)(F)F,survivor count,"dose: 200.0 mg/kg/injection, schedule: Q01DX001 (ip), vehicle: saline",0 of 4
same,survivor count,"dose: 400.0 mg/kg/injection, schedule: Q01DX001 (ip), vehicle: saline",0 of 4
CCCCCCOC(=O)C(N)Cc1ccc(O)c(N(CCCl)CCCl)c1 (stereo unspecified),T/C,"dose: 0.02 mg/kg/injection, schedule: Q01DX009 (ip), vehicle: saline",134 % of control
same,T/C,"dose: 0.05 mg/kg/injection, schedule: Q01DX009 (ip), vehicle: saline",134 % of control
same,T/C,"dose: 0.1 mg/kg/injection, schedule: Q01DX009 (ip), vehicle: saline",130 % of control
same,T/C,"dose: 0.5 mg/kg/injection, schedule: Q01DX001 (ip), vehicle: saline",132 % of control
same,survivor count,"dose: 1.0 mg/kg/injection, schedule: Q01DX001 (ip), vehicle: saline",6 of 6
same,survivor count,"dose: 2.2 mg/kg/injection, schedule: Q01DX009 (ip), vehicle: saline",2 of 6
same,survivor count,"dose: 3.3 mg/kg/injection, schedule: Q01DX009 (ip), vehicle: saline",0 of 6 and 6 of 6
same,survivor count,"dose: 5.0 mg/kg/injection, schedule: Q01DX009 (ip), vehicle: saline",0 of 6 and 6 of 6
same,survivor count,"dose: 7.5 mg/kg/injection, schedule: Q01DX001 (ip), vehicle: saline",0 of 6
same,survivor count,"dose: 7.5 mg/kg/injection, schedule: Q01DX009 (ip), vehicle: saline",0 of 6 and 5 of 6
same,T/C,"dose: 10.0 mg/kg/injection, schedule: Q01DX001 (ip), vehicle: saline",141 % of control [5 of 6 alive]
same,survivor count,"dose: 15.0 mg/kg/injection, schedule: Q01DX001 (ip), vehicle: saline",1 of 6
same,survivor count,"dose: 30.0 mg/kg/injection, schedule: Q01DX001 (ip), vehicle: saline",3 of 6
same,survivor count,"dose: 60.0 mg/kg/injection, schedule: Q01DX001 (ip), vehicle: saline",0 of 6
same,survivor count,"dose: 75.0 mg/kg/injection, schedule: Q01DX001 (sc), vehicle: saline",1 of 6
same,survivor count,"dose: 150.0 mg/kg/injection, schedule: Q01DX001 (sc), vehicle: saline",1 of 6
same,survivor count,"dose: 300.0 mg/kg/injection, schedule: Q01DX001 (sc), vehicle: saline",0 of 6
same,T/C,"dose: 2.0 micrograms/kg/injection, schedule: Q01DX009 (ip), vehicle: saline",137 % of control
same,T/C,"dose: 4.0 micrograms/kg/injection, schedule: Q01DX009 (ip), vehicle: saline",146 % of control
Cc1ccccc1N1C(N)=NC(N)=NC1(C)C,survivor count,[4],0 of 6
same,survivor count,[10],0 of 6
same,survivor count,[5],0 of 6
same,survivor count,[11],0 of 6
same,survivor count,[6],0 of 6
O=P(O)(O)CCC(F)(F)C(F)(F)C(F)(F)C(F)(F)C(F)(F)C(F)(F)C(F)(F)F,survivor count,[10],3 of 6
same,survivor count,[11],0 of 6
NCCSC(O)(C(F)(F)F)C(F)(F)F,survivor count,[11],1 of 6 and 3 of 6
O=C(Nc1ccc(F)c([N+](=O)[O-])c1)Oc1cccnc1,T/C,[1],"87 [2 of 3 alive], 93 [5 of 6 alive], 99, 103 % of control [4 of 6 alive]"
same,survivor count,[2],0 of 3 and 1 of 6
same,survivor count,"dose: 400.0 mg/kg/injection, schedule: Q01DX001 (ip), vehicle: saline with Tween-80",0 of 6
same,survivor count,"dose: 400.0 mg/kg/injection, schedule: Q01DX009 (ip), vehicle: saline with Tween-80",0 of 3 and 0 of 6
same,survivor count,[3],0 of 6
CCCCCCN=C(N)c1ccc(NC(=O)c2ccc(C(=O)Nc3ccc(C(N)=NCCCCCC)cc3)cc2)cc1,survivor count,"dose: 25.0 mg/kg/injection, schedule: Q01DX Z (ip), vehicle: methylcellulose (MC)",0 of 6
same,survivor count,"dose: 50.0 mg/kg/injection, schedule: Q01DX Z (ip), vehicle: methylcellulose (MC)",0 of 6
same,survivor count,"dose: 100.0 mg/kg/injection, schedule: Q01DX Z (ip), vehicle: methylcellulose (MC)",0 of 6
same,survivor count,"dose: 200.0 mg/kg/injection, schedule: Q01DX Z (ip), vehicle: methylcellulose (MC)",0 of 6
CCCCN(C)N=Nc1ccccc1C(=O)OC,survivor count,[9],2 of 4
CC(C)C(NC(=O)CNC(=O)CCl)C(=O)O (stereo unspecified),survivor count,[3],5 of 6
O=S1(=O)C=CCC1,survivor count,[9],2 of 4
same,survivor count,"dose: 400.0 mg/kg/injection, schedule: Q01DX009 (ip), vehicle: saline",1 of 6
O=C1N(C[P+](c2ccccc2)(c2ccccc2)c2ccccc2)CCCN1C[P+](c1ccccc1)(c1ccccc1)c1ccccc1,survivor count,"dose: 12.5 mg/kg/injection, schedule: Q01DX005 (ip), vehicle: saline",0 of 3
same,survivor count,"dose: 100.0 mg/kg/injection, schedule: Q04DX002 (ip), vehicle: saline",3 of 3
same,survivor count,"dose: 200.0 mg/kg/injection, schedule: Q04DX002 (ip), vehicle: saline",0 of 3
same,survivor count,"dose: 400.0 mg/kg/injection, schedule: Q04DX002 (ip), vehicle: saline",0 of 3
Cc1cccc(CN)n1,survivor count,[8],1 of 6
